The values below come from paper PMC5371897.

The exact form of at least one protein or probe is not confirmed. At least one result comes from cells or an extract, where the contact may be indirect. At least one verdict rests on a figure or table, not on a statement of the authors.

In the series the test system is NF-kB p50 + NF-kB cRel. The series can be described thus: EMSA. To be noted: latent S11 nuclear extract, labeled probe; protein in an extract; label: 32P. For orientation: Mobility shift assays separate free from complexed probe on a gel.

Regarding “AGTTGAGGGGACTTTCCCAGGC (double strand) [NF-kB consensus WT oligonucleotide]”, the binding result is reported as “binds”.
